Earlier results in patent publication US20090181438A1, “OPTIMIZATION OF BIOFUEL PRODUCTION” (THE OHIO STATE UNIVERSITY RESEARCH FOUNDATION, priority 2007, published 2009).
Some results were stated once for a whole list of compounds, not compound by compound. Some ranges recur; such a range may be that of the whole group of compounds.

Details: logarithm of the octanol-water partition coefficient; cited from earlier work

## CCCCCCC [heptane]
  log Po: 4-5
